From patent US5091311A, “The production of KSB-1939 macrolides using STR eptomyces hygroscopicus” (Kumiai Chemical Industry Co., Ltd., priority 1987, dated 1992)
Like-named read-outs stand apart in the source and are kept apart here. The name of at least one read-out is uncertain.

Columns and labels:
[1] = test system: Mouse; test: Test 11 acute toxicity test (oral), mouse; type: in vivo, mouse (B6 C3 F1); settings: female
Text: (§1) Test 11 (Acute Toxicity Test)
(§2) The acute toxicity (oral) of one of the compounds of this invention was investigated using rats (male and female, F344, 7 weeks old) and mice (male and female, B6 C3 F1, 7 weeks old).

[2] = test system: Rat; test: Test 11 acute toxicity test (oral), rat; type: in vivo, rat (F344); settings: female
Text: as §1, §2

[3] = test system: Mouse; settings: reference substances, cited from earlier work
[4] = test system: Rat; settings: literature data, cited from earlier work

## CC(C)=CC(=O)OCC1=CC2C(=O)OC3CC(CC=C(C)CC(C)C=CC=C4COC(C1O)C42O)OC1(CCC(C)C(C)O1)C3 (centres unmarked) [KSB-1939H2]
[1]
  LD50 Mouse: > 5000 ppm
[2]
  LD50 Rat: > 5000 ppm

## CC1=CCC2CC(CC3(CCC(C)C(C)O3)O2)OC(=O)C2C=C(COC(=O)CC(C)C)C(O)C3OCC(=CC=CC(C)C1)C23O (centres unmarked) [KSB-1939H3]
[1]
  LD50 Mouse: > 5000 ppm

## CCC1OC2(CCC1C)CC1CC(CC=C(C)CC(C)C=CC=C3COC4C(O)C(COC(=O)C=C(C)C)=CC(C(=O)O1)C34O)O2 (centres unmarked) [KSB-1939S5]
[1]
  LD50 Mouse: > 5000 ppm

## CC1=C[C@H]2C(=O)O[C@H]3C[C@@H](C/C=C(\C)C[C@@H](C)/C=C/C=C4\CO[C@H]([C@@H]1O)[C@@]42O)O[C@@]1(CC[C@H](C)[C@@H](C(C)C)O1)C3 [Milbemycin D]
[3]; female
  LD50 Mouse: 2998.5 ppm
[3]; male
  LD50 Mouse: 2467.0 ppm
[4]; female
  LD50 Rat: 1609.5 ppm
[4]; male
  LD50 Rat: 1847.1 ppm
